# The supplement of paper PMC7824004
# The list shows a part of the results. The data scatter; read single values as rough.
# Tested on: Candida albicans SN425
# Experiment: biofilm OD600 B-score; higher = more biofilm (less inhibition)
# Settings: 10 µM; assay detail: High-throughput adherence inhibition optical density biofilm assay with C. albicans SN425 in RPMI-1640/MOPS pH 7.0, 384-well plates. …
# Protocol: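 High-throughput adherence inhibition optical density biofilm assay with C. albicans SN425 in RPMI-1640/MOPS pH 7.0, 384-well plates. Compound (10 µM) was present only during the 90 min adherence step, then washed out, and the biofilm grew 24 h without compound. Biofilm was read as OD600 after removing the media. Scores are the difference from the mean in standard deviations and the plate B-score.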
row,Compound,biofilm OD600 B-score
1,Nc1ccc(Sc2nc3ccccc3[nH]2)c(Cl)c1,-0.467
2,COC(=O)Nc1ccc(OCC(=O)N2CCOCC2)cc1,-0.543
3,COc1ccc(C(N)=O)cc1S(=O)(=O)N1CCOCC1,0.3
4,Cc1cccc(NC(=O)CCN2CCOCC2)c1,-3.01
5,Cc1ccc(COC(=O)NCc2cccnc2)cc1,0.867
6,COCC(C)NS(=O)(=O)c1ccc(NC(C)=O)cc1 (stereo not given),-0.267
7,c1cc(CNc2ccc3c(c2)CCC3)ccn1,0.0188
8,CC(O)/C=C/c1ccc2ccccc2n1 (stereo not given),-4.03
9,O=C(CCC1CCCC1)NCC1CCCO1 (stereo not given),3.5
10,CCCSc1nc(O)cc(=O)n1C,0.173
11,CSc1nnc(-c2cccc(C)c2)n1N,-0.999
12,CCC(CC)C(=O)NCc1ccncc1,-0.0225
13,NC(=O)C1CCN(Cc2ccc(Cl)cc2)CC1,-1.46
14,Cc1ccc(C(=O)NCc2cccnc2)s1,2.04
15,CSc1nc(N)c2c3c(sc2n1)CCC3,-0.798
16,C=CCN(CC=C)C(=O)Nc1cccc(Cl)c1,-0.288
17,N#CCCn1[nH]c(-c2ccccc2)cc1=O,1.83
18,CN(C)c1ccc(N2CC(C(=O)O)CC2=O)cc1 (stereo not given),-0.00344
19,CCOc1ccccc1C(=O)Nc1nnc(COC)s1,0.488
20,CN1CCN(c2nc(/C=C/c3ccccc3)nc3ccccc23)CC1,2.14

row,Compound,biofilm OD600 B-score
1,Cc1cc(Br)ccc1OCC(=O)NCC1CCCO1 (stereo not given),-1.27
2,N#Cc1nc(-c2ccccc2)cc(-c2ccccc2)n1,0.869
3,Cc1ccc(NC(=O)CSc2nc(C)cc(=O)[nH]2)c(C)c1,0.454
4,CN1CCN(CC(O)COc2ccccc2)CC1 (stereo not given),2.5
5,O=C(Nc1ccccc1Cl)C1CCN(C(=O)c2cccs2)CC1,0.586
6,COc1ccc(S(=O)(=O)Nc2ccccc2C(=O)NC(C)C)cc1,0.697
7,COc1ccc(C(=O)N2CCN(CC(=O)N3CCOCC3)CC2)cc1,-3.63
8,CC(NC(=O)Nc1ccccc1)c1ccccc1 (stereo not given),1.85
9,COc1c(S(=O)(=O)NCCCN2CCOCC2)ccc(Cl)c1Cl,-0.685
10,CCC1CCC(NCCN2CCOCC2)CC1 (stereo not given),-3.58
11,NC(=O)C1CCN(Cc2c(F)cccc2Cl)CC1,-1.7
12,O=C(NCCCN1CCCC1)c1ccc(F)cc1,0.00801
13,c1ccc(-n2nnnc2SCCN2CCOCC2)cc1,1.19
14,CCC(C(=O)Nc1ccc(C(N)=O)cc1)c1ccccc1 (stereo not given),-0.167
15,C/C=C(\C)CN1CCN(CCOCCO)CC1,0.517
16,C/C=C(\C)CN1CCN(Cc2ccccc2)CC1,-1.55
17,COc1cc(Cl)c(S(=O)(=O)N2CCN(C)CC2)cc1Cl,0.0149
18,CCSc1nnc(NS(=O)(=O)c2ccc(OC)cc2)s1,0.267
19,Cc1ccc(NC(=O)Cn2c(C)nc3ccccc32)cc1,-0.329
20,NS(=O)(=O)c1ccc(Oc2ccccc2)cc1,0.558

# Among those listed so far, two have fluorine:
row,Compound,biofilm OD600 B-score
11,NC(=O)C1CCN(Cc2c(F)cccc2Cl)CC1,-1.7
12,O=C(NCCCN1CCCC1)c1ccc(F)cc1,0.00801
